Measurements from PMC3816671 (Pharmaceuticals, 2012).
Some peptides are written in HELM: one residue between dots, names in brackets for other building blocks, links after the first $.

Assay: general procedure: Fmoc solid-phase peptide synthesis; Rink amide resin (0.64 mmol/g); bromoacetic acid/DIC (submonomer method); DIC/HOBt for rhodamine B
Conditions: whole synthesis; for final HPLC purity: reversed phase analytical HPLC (Agilent 1200, C18); for final HPLC purity / isolated yield: scale of the general procedure 50 mg resin per MiniKan

| Substance | isolated mass [mg] | final HPLC purity [%] | isolated yield [%] |
| --- | --- | --- | --- |
| PEPTIDE1{[RhoB].[Npmb].[Nlys].[Nlys].[Nphe].[am]}$$$$V2.0 | 1.16 | 85 | 2.7 |
| PEPTIDE1{[RhoB].[Nlys].[Nlys].[Nlys].[Nlys].[am]}$$$$V2.0 | 23.8 | >99 | 49 |
| PEPTIDE1{[RhoB].[Npmb].[Nlys].[Nlys].[Nlys].[am]}$$$$V2.0 | 1.18 | 83 | 2.5 |
| PEPTIDE1{[RhoB].[Nlys].[Nlys].[Npcb].[Nlys].[am]}$$$$V2.0 | 2.67 | 88 | 5.7 |
| PEPTIDE1{[RhoB].[Npmb].[Nlys].[Npcb].[Nlys].[am]}$$$$V2.0 | 1.01 | 83 | 2.3 |
| PEPTIDE1{[RhoB].[Nlys].[Nlys].[Nlys].[Nphe].[am]}$$$$V2.0 | 10.3 | 90 | 23 |
| PEPTIDE1{[RhoB].[Npmb].[Nlys].[Npcb].[Nphe].[am]}$$$$V2.0 | 0.89 | 82 | 2.1 |
